Results as given in article PMC8877285.
Results are given in words; binding and its absence hold for the method and conditions named. Binding seen in cells or lysates may run through a third protein. These calls come from enrichment with a bait or labelling near it, and not all partners need be listed.

T1: flavin-containing monooxygenase 3 (FMO3) (mouse (endogenous in mouse liver)) (UniProt P97501)
T1 sequence: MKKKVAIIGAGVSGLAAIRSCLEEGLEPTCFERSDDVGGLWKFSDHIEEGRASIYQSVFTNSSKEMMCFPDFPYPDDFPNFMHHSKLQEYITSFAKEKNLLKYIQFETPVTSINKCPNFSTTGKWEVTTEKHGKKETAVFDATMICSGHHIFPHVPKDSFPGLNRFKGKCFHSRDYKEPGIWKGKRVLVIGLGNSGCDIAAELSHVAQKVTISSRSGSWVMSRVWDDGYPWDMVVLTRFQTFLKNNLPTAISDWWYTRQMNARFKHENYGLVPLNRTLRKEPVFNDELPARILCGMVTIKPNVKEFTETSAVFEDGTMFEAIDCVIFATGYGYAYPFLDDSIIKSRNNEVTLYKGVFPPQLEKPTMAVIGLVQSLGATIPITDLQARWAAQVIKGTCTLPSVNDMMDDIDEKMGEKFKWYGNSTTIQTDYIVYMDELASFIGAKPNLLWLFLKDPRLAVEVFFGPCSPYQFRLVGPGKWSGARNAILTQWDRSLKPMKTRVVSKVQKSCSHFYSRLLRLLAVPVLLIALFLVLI

B1: SDS (protein, UniProt Q8VBT2 1-327)
chain: MAAQESLHVKTPLRDSMALSKLAGTSVFLKMDSSQPSGSFKIRGIGHLCKMKAKQGCRHFVCSSAGNAGMATAYAARRLGIPATIVVPNTTPALTIERLKNEGATVEVVGEMLDEAIQVAKALEKNNPGWVYISPFDDPLIWEGHTSLVKELKETLSAKPGAIVLSVGGGGLLCGVVQGLREVGWEDVPIIAMETFGAHSFHAAIKEGKLVTLPKITSVAKALGVNTVGAQTLKLFYEHPIFSEVISDQEAVSALEKFVDDEKILVEPACGAALAAVYSRVVCRLQDEGRLQTPLASLVVIVCGGSNISLAQLQALKVQLGLNGLPE
B2: SERBP1 (protein, UniProt Q9CY58 1-407)
chain: MPGHLQEGFGCVVTNRFDQLFDDESDPFEVLKAAENKKKEAGGGGVGGPGAKSAAQAAAQTNSNAAGKQLRKESQKDRKNPLPPSVGVADKKEETQPPVALKKEGIRRVGRRPDQQLQGDGKLIDRRAERRPPRERRFEKPLEEKGEGGEFSVDRPIIERPIRGRGGLGRGRGGRGRGMGRGDGFDSRGKREFDRHSGSDRSSFSHYSGLKHEDKRGGSGSHNWGTVKDELTESPKYIQKQISYNCSDLDQSNVTEETPEGEEHPVADTENKENEVEEVKEEGPKEMTLDEWKAIQNKDRAKVEFNIRKPNEGADGQWKKGFVLHKSKSEEAHAEDSVMDHHFRKPANDITSQLEINFGDLGRPGRGGRGGRGGRGRGGRPNRGSRTDKSSASAPDVDDPEAFPALA
B3: SUCLG2 (protein, UniProt Q9Z2I8 39-433)
chain: LNLQEYQSKKLMSEHGVRVQRFFVANTAKEALEAAKRLNAKEIVLKAQILAGGRGKGVFNSGLKGGVHLTKDPKVVGELAQQMIGYNLATKQTPKEGVKVNKVMVAEALDISRETYLAILMDRSHNGPVIVGSPQGGVDIEEVAASSPELIFKEQIDIFEGIKDSQAQRMAENLGFLGSLKNQAADQITKLYHLFLKIDATQVEVNPFGETPEGQVVCFDAKINFDDNAEFRQKDIFAMDDKSENEPIENEAARYDLKYIGLDGNIACFVNGAGLAMATCDIIFLNGGKPANFLDLGGGVKEAQVYEAFKLLTSDPKVEAILVNIFGGIVNCAIIANGITKACRELELKVPLVVRLEGTNVQEAQNILKSSGLPITSAVDLEDAAKKAVASVAKK
B4: ornithine transcarbamylase (OTC) (protein, UniProt P11725 33-354)
chain: SQVQLKGRDLLTLKNFTGEEIQYMLWLSADLKFRIKQKGEYLPLLQGKSLGMIFEKRSTRTRLSTETGFALLGGHPSFLTTQDIHLGVNESLTDTARVLSSMTDAVLARVYKQSDLDTLAKEASIPIVNGLSDLYHPIQILADYLTLQEHYGSLKGLTLSWIGDGNNILHSIMMSAAKFGMHLQAATPKGYEPDPNIVKLAEQYAKENGTKLSMTNDPLEAARGGNVLITDTWISMGQEDEKKKRLQAFQGYQVTMKTAKVAASDWTFLHCLPRKPEEVDDEVFYSPRSLVFPEAENRKWTIMAVMVSLLTDYSPVLQKPKF
B5: KRT10 (protein, UniProt P02535 1-570)
chain: MSVLYSSSSKQFSSSRSGGGGGGGSVRVSSTRGSLGGGYSSGGFSGGSFSRGSSGGGCFGGSSGGYGGFGGGGSFGGGYGGSSFGGGYGGSSFGGGYGGSSFGGAGFGGGGSFGGGSFGGGSYGGGFGGGGFGGDGGSLLSGNGRVTMQNLNDRLASYMDKVRALEESNYELEGKIKEWYEKHGNSSQREPRDYSKYYKTIEDLKGQILTLTTDNANVLLQIDNARLAADDFRLKYENEVTLRQSVEADINGLRRVLDELTLSKSDLEMQIESLNEELAYLKKNHEEEMRDLQNVSTGDVNVEMNAAPGVDLTQLLNNMRNQYEQLAEKNRKDAEEWFNQKSKELTTEIDSNIEQMSSHKSEITELRRTVQGLEIELQSQLALKQSLEASLAETEGRYCVQLSQIQSQISALEEQLQQIRAETECQNAEYQQLLDIKTRLENEIQTYRSLLEGEGSSSGGGGGRRGGSGGGSYGGSSGGGSYGGSSGGGGSYGGSSGGGGSYGGGSSGGGSHGGSSGGGYGGGSSSGGAGGHGGSSGGGYGGGSSSGGQGGSGGFKSSGGGDQSSKGPRY
B6: PCCA (protein, UniProt Q91ZA3 49-724)
chain: SVEYEPKEKTFDKILIANRGEIACRVIKTCKKMGIKTVAIHSDVDASSVHVKMADEAVCVGPAPTSKSYLNMDAIMEAIKKTRAQAVHPGYGFLSENKEFAKRLAAEDVTFIGPDTHAIQAMGDKIESKLLAKRAKVNTIPGFDGVVKDADEAVRIAREIGYPVMIKASAGGGGKGMRIAWDDEETRDGFRFSSQEAASSFGDDRLLIEKFIDNPRHIEIQVLGDKHGNALWLNERECSIQRRNQKVVEEAPSIFLDPETRQAMGEQAVALAKAVKYSSAGTVEFLVDSQKNFYFLEMNTRLQVEHPVTECITGLDLVQEMILVAKGYPLRHKQEDIPISGWAVECRVYAEDPYKSFGLPSIGRLSQYQEPIHLPGVRVDSGIQPGSDISIYYDPMISKLVTYGSDRAEALKRMEDALDNYVIRGVTHNIPLLREVIINTRFVKGDISTKFLSDVYPDGFKGHTLTLSERNQLLAIASSVFVASQLRAQRFQEHSRVPVIRPDVAKWELSVKLHDEDHTVVASNNGPAFTVEVDGSKLNVTSTWNLASPLLSVNVDGTQRTVQCLSREAGGNMSIQFLGTVYKVHILTKLAAELNKFMLEKVPKDTSSTLCSPMPGVVVAVSVKPGDMVAEGQEICVIEAMKMQNSMTAGKMGKVKLVHCKAGDTVGEGDLLVELE
B7: PRDX1 (protein, UniProt P35700 1-199)
chain: MSSGNAKIGYPAPNFKATAVMPDGQFKDISLSEYKGKYVVFFFYPLDFTFVCPTEIIAFSDRADEFKKLNCQVIGASVDSHFCHLAWINTPKKQGGLGPMNIPLISDPKRTIAQDYGVLKADEGISFRGLFIIDDKGILRQITINDLPVGRSVDEIIRLVQAFQFTDKHGEVCPAGWKPGSDTIKPDVNKSKEYFSKQK
B8: TRIM21 (protein, UniProt Q62191 1-470)
chain: MSPSTTSKMSLEKMWEEVTCSICLDPMVEPMSIECGHCFCKECIFEVGKNGGSSCPECRQQFLLRNLRPNRHIANMVENLKQIAQNTKKSTQETHCMKHGEKLHLFCEEDGQALCWVCAQSGKHRDHTRVPIEEAAKVYQEKIHVVLEKLRKGKELAEKMEMDLTMQRTDWKRNIDTQKSRIHAEFALQNSLLAQEEQRQLQRLEKDQREYLRLLGKKEAELAEKNQALQELISELERRIRGSELELLQEVRIILERSGSWNLDTLDIDAPDLTSTCPVPGRKKMLRTCWVHITLDRNTANSWLIISKDRRQVRMGDTHQNVSDNKERFSNYPMVLGAQRFSSGKMYWEVDVTQKEAWDLGVCRDSVQRKGQFSLSPENGFWTIWLWQDSYEAGTSPQTTLHIQVPPCQIGIFVDYEAGVVSFYNITDHGSLIYTFSECVFAGPLRPFFNVGFNYSGGNAAPLKLCPLKM
B9: CYP1A2 (protein, UniProt P00186 1-513)
chain: MAFSQYISLAPELLLATAIFCLVFWMVRASRTQVPKGLKNPPGPWGLPFIGHMLTVGKNPHLSLTRLSQQYGDVLQIRIGSTPVVVLSGLNTIKQALVRQGDDFKGRPDLYSFTLITNGKSMTFNPDSGPVWAARRRLAQDALKSFSIASDPTSASSCYLEEHVSKEANHLVSKLQKAMAEVGHFEPVSQVVESVANVIGAMCFGKNFPRKSEEMLNIVNNSKDFVENVTSGNAVDFFPVLRYLPNPALKRFKTFNDNFVLFLQKTVQEHYQDFNKNSIQDITSALFKHSENYKDNGGLIPEEKIVNIVNDIFGAGFDTVTTAITWSILLLVTWPNVQRKIHEELDTVVGRDRQPRLSDRPQLPYLEAFILEIYRYTSFVPFTIPHSTTRDTSLNGFHIPKERCIYINQWQVNHDEKQWKDPFVFRPERFLTNNNSAIDKTQSEKVMLFGLGKRRCIGEIPAKWEVFLFLAILLQHLEFSVPPGVKVDLTPNYGLTMKPGTCEHVQAWPRFSK
B10: dihydrolipoamide S-succinyltransferase (Dlst) (protein, UniProt Q9D2G2 69-454)
chain: NDVITVQTPAFAESVTEGDVRWEKAVGDAVAEDEVVCEIETDKTSVQVPSPANGIIEALLVPDGGKVEGGTPLFTLRKTGAAPAKAKPAETPAPAHKAEPAAPAAPPPPAAPVLTQMPPVPSPSQPPSSKPVSAIKPTAAPPLAEAGAAKGLRSEHREKMNRMRQRIAQRLKEAQNTCAMLTTFNEVDMSNIQEMRARHKDAFLKKHNLKLGFMSAFVKASAFALQEQPVVNAVIDDATKEVVYRDYIDISVAVATPRGLVVPVIRNVETMNYADIERTINELGEKARKNELAIEDMDGGTFTISNGGVFGSLFGTPIINPPQSAILGMHAIFDRPVAVGGKVEVRPMMYVALTYDHRLIDGREAVTFLRKIKAAVEDPRVLLLDL
B11: FMO5 (protein, UniProt P97872 1-533)
chain: MAKKRIAVIGAGASGLTCIKCCLEEGLEPVCFERSGDIGGLWRFQEAPEEGRASIYQSVVINTSKEMMCFSDYPIPDHYPNYMHNSQVLEYFRMYAKEFDLLKYIQFKTTVCSVKKQPDFSTSGQWQVVTECEGKQQVDVFDGVLVCTGHHTDAHLPLESFPGIEKFKGKYFHSRDYKNPVEFTGKRVIVIGIGNSGGDLAVEISHTAKQVFLSTRRGAWILNRVGKHGYPIDLLLSSRIMYYLSRICGPSLKNNYMEKQMNQRFDHEMFGLKPKHRALSQHPTVNDDLPNRIIAGLVKVKGNVKEFTETAAVFEDGSREDGIDVVIFATGYSFAFPFLEDSVKVVKNKVSLYKKVFPPNLEKPTLAIIGLIQPLGAIMPISELQGRWATQVFKGLKKLPSQSEMMAEINKAREEMAKRYVDSQRHTIQGDYIDTMEEIADLVGVRPNILPLVFTDPRLALRLLLGPCTPVQYRLQGPGKWAGARKTILTTEDRVRKPLMTRVVERDSSGGSLVTVRVLMLAVAFFAVILAYF

These binders were tested against T1, flavin-containing monooxygenase 3 (FMO3) (mouse (endogenous in mouse liver)) (assay: affinity purification with mass spectrometry; mouse liver extracts (vehicle or PCB-126-treated mice) in TBS (25 mM Tris pH 7.4, 150 mM NaCl, 1% NP-40, 5% glycerol, protease inhibitors), immunoprecipitated overnight at 4 °C with anti-FMO3 (Abnova) on protein A/G agarose; normal IgG IP as control; LC-MS/MS of the tryptic digest).

Binder | binding
B1 | binds
B2 | binds
B3 | binds
B4 | binds
B5 | binds
B6 | binds
B7 | binds
B8 | binds
B9 | binds
B10 | binds
B11 | binds
